Measured values: patent US20010016352, “NUCLEIC ACID SEQUENCES CONTROLLING LUNG CELL-SPECIFIC GENE EXPRESSION” (published 2001)

What was measured:
[1] = target: T1, HNF-3alpha (Mus musculus) (UniProt P35582); assay: competition with a labelled probe; conditions: 1000-fold excess competes complex C; protein in an extract; protein details: endogenous, MLE-15 nuclear extract
T1 sequence (looked up, limits assumed): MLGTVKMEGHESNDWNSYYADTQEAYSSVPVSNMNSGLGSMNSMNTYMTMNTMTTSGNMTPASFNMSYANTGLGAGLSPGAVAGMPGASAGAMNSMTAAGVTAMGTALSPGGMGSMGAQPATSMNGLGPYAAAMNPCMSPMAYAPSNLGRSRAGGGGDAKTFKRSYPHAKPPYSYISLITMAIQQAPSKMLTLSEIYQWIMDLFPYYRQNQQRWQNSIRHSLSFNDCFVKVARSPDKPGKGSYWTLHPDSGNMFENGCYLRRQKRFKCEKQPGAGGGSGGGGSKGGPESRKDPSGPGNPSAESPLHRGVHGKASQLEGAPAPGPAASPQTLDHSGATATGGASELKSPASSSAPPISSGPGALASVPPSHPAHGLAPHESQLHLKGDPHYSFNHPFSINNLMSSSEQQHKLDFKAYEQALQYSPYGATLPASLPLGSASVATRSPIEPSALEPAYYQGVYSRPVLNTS

[2] = target: T2, HNF-3beta (Mus musculus) (UniProt P35583); assay: competition with a labelled probe; conditions: 1000-fold excess competes complex D; protein in an extract; protein details: endogenous, MLE-15 nuclear extract
T2 sequence (looked up, limits assumed): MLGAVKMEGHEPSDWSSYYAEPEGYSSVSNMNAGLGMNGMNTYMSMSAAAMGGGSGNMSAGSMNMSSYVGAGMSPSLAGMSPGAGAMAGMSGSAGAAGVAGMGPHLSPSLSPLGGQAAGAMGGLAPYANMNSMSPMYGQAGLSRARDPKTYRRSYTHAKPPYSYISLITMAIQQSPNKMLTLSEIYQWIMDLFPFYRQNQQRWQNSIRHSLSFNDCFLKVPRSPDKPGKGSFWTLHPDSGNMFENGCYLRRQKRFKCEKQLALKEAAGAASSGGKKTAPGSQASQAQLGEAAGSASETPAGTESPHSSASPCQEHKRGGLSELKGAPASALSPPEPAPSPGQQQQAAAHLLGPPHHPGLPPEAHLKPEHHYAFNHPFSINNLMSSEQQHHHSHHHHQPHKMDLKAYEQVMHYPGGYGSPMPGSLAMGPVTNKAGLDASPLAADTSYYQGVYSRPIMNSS

[3] = target: T1, HNF-3alpha (Mus musculus); assay: EMSA; conditions: protein in an extract, protein details: endogenous, MLE-15 nuclear extract, label: 32P
[4] = target: T2, HNF-3beta (Mus musculus); assay: EMSA; conditions: protein in an extract, protein details: endogenous, MLE-15 nuclear extract, label: 32P
[5] = target: TTF-1 (Homo sapiens) (UniProt P43699); assay: EMSA; conditions: anti-TTF-1 supershift, data not shown; protein in an extract; protein details: endogenous, H441 nuclear extract; label: 32P
[6] = target: TTF-1 (Mus musculus) (UniProt P50220); assay: EMSA; conditions: protein in an extract, protein details: endogenous, MLE-15 nuclear extract
[7] = target: T3, TTF-1 homeodomain (TTF-1 HD) (Rattus norvegicus) (UniProt P23441); assay: EMSA; conditions: purified recombinant protein, protein details: bacterially expressed homeodomain fragment, label: 32P
T3 sequence (looked up, limits assumed): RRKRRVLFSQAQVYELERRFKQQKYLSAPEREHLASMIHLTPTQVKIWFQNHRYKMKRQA

[8] = target: T4, HNF-3alpha (Homo sapiens) (UniProt P55317); assay: EMSA; conditions: H441 formed only complex C; protein in an extract; protein details: endogenous, H441 nuclear extract; label: 32P
T4 sequence (looked up, limits assumed): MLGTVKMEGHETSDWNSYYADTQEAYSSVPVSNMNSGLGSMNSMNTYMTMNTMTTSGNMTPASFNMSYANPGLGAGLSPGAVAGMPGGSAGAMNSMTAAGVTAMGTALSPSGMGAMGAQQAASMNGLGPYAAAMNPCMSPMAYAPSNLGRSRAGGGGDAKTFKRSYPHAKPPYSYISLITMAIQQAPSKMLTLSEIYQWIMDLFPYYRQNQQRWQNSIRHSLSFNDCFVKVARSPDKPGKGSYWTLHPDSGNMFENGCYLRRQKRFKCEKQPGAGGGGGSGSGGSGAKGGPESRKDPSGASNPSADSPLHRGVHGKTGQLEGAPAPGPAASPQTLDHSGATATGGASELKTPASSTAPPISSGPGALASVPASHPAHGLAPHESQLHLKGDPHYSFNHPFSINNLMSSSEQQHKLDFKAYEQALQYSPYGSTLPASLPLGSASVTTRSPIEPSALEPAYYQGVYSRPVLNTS

[9] = target: T5, HNF-3gamma (Mus musculus) (UniProt P35584); assay: EMSA; conditions: antibody had no effect; not expressed in lung; protein in an extract; protein details: MLE-15 nuclear extract; label: 32P
T5 sequence (looked up, limits assumed): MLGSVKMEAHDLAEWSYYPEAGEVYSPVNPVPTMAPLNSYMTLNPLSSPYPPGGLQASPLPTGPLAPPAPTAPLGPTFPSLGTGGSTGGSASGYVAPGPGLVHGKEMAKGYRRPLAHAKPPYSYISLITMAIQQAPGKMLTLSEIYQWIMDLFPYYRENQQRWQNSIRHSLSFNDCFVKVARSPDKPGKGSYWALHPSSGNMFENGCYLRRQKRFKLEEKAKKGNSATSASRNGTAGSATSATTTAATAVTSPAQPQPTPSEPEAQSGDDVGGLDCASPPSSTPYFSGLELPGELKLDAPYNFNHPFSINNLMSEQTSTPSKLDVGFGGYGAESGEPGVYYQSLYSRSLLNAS

[10] = variant of hSP-B -439/-331 enhancer
[11] = single complex as probe, 100-fold excess competes slightly less than f1, variant of SPB-f1
[12] = one band, variant of SP-A probe A

Does “ACGCAGGACTTGTTTGTTCTAG (double strand) [TGT3]” bind [1]?
Result: binds

Does “ACGCAGGACTTGTTTGTTCTAG (double strand) [TGT3]” bind [2]?
Result: binds

Does “AGCACCTGGAGGGCTCTTCAGAGC (double strand) [SPB-f1]” bind ([3]; anti-HNF-3alpha did not affect SPB-f1 complexes)?
Result: no binding

Does “AGCACCTGGAGGGCTCTTCAGAGC (double strand) [SPB-f1]” bind ([4]; anti-HNF-3beta did not affect SPB-f1 complexes)?
Result: no binding

Does “AGCACCTGGAGGGCTCTTCAGAGC (double strand) [SPB-f1]” bind [5]?
Result: binds

Does “AGCACCTGGAGGGCTCTTCAGAGC (double strand) [SPB-f1]” bind ([6]; anti-TTF-1 supershift, complexes A and B, label: 32P)?
Result: binds

Does “AGCATTGCTATCCAGTAGAGGGGGCCTGGG (double strand) [Bc mutant (Bcm)]” bind ([7]; variant of Bc wild type)?
Result: no binding

Does “AGCATTGCTCAAGAGTAGAGGGGGCCTGGG (double strand) [Bc wild type]” bind [7, 10]?
Result: binds

Does “ATCAAGCACCTGGAGGGC (double strand) [5'f1]” bind [6, 11]?
Result: binds

Does “CACTGCCCAGTCAAGTGTTCTTGA (double strand) [oligo C]” bind [6]?
Result: binds

Does “CGACCTCAGTGTTTGTCTTTGC (double strand) [SPB-f2]” bind [8]?
Result: binds

Does “CGACCTCAGTGTTTGTCTTTGC (double strand) [SPB-f2]” bind ([3]; complex C, antibody interference)?
Result: binds

Does “CGACCTCAGTGTTTGTCTTTGC (double strand) [SPB-f2]” bind ([4]; complex D, antibody interference)?
Result: binds

Does “CGACCTCAGTGTTTGTCTTTGC (double strand) [SPB-f2]” bind [9]?
Result: no binding

Does “CGACCTCAGTGTTTGTCTTTGC (double strand) [SPB-f2]” bind ([6]; label: 32P)?
Result: no binding

Does “GCCACCCTCAAGGTTCTAAGTGCTCTTCTTGTTAAGTGCTCTGAAGGAAC (double strand) [SP-A probe A]” bind ([7]; four bands)?
Result: binds

Does “GCCAGGCAGGAAGCTCTCAAGAGCATTG (double strand) [Bb wild type]” bind [7, 10]?
Result: binds

Does “GCCAGGTAGGAAGCTCTATCCAGCATTG (double strand) [Bb mutant (Bbm)]” bind ([7]; variant of Bb wild type)?
Result: no binding

Does “GGGCTCTTCAGAGCAAAG (double strand) [3'f1]” bind [6, 11]?
Result: binds

Does “GTGCCACCCTCAAGGTTCTAAGTG (double strand) [SP-A probe C]” bind ([6]; 18 h exposure, label: 32P, variant of SP-A probe A)?
Result: binds

Does “GTGCCACCCTCAAGGTTCTAAGTG (double strand) [SP-A probe C]” bind [7, 12]?
Result: binds

Does “GTTAAGTGCTCTGAAGGAACCTG (double strand) [SP-A probe D]” bind ([6]; strong, 30 min exposure, label: 32P, variant of SP-A probe A)?
Result: binds

Does “GTTAAGTGCTCTGAAGGAACCTG (double strand) [SP-A probe D]” bind [7, 12]?
Result: binds

Does “TAGGGGGATCCCTGGGTTAAGAGCTAGGCA (double strand) [Ba mutant (Bam)]” bind ([7]; variant of Ba wild type)?
Result: no binding

Does “TCTAAGTGCTCTTC (double strand) [SP-A probe E]” bind ([6]; lowest affinity site 2, 24 h exposure, label: 32P, variant of SP-A probe A)?
Result: binds

Does “TCTAAGTGCTCTTCTTGTTAAGTGCTCTGA (double strand) [SP-A probe B]” bind ([6]; anti-TTF-1 supershift assay, label: 32P, variant of SP-A probe A)?
Result: binds

Does “TCTAAGTGCTCTTCTTGTTAAGTGCTCTGA (double strand) [SP-A probe B]” bind ([7]; two bands, variant of SP-A probe A)?
Result: binds

Does “TCTGATTATTGACTTAGTCAAGCG (double strand) [TTR-S]” bind [1]?
Result: binds

Does “TCTGATTATTGACTTAGTCAAGCG (double strand) [TTR-S]” bind [2]?
Result: binds

For some assays here: Where cells or extracts were used, other partners may take part. For some assays here: A negative result means that nothing was seen under these conditions. For some assays here: Tags and fusion partners may be left off the protein sequences shown. For some assays here: Construct, isoform or probe ends are uncertain for at least one entry.
